From PMC4985585
These are yes or no findings as the source states them, for the method shown. Binding seen in cells or lysates may run through a third protein. These calls come from enrichment with a bait or labelling near it, and not all partners need be listed.

Sequences of proteins named here, by UniProt entry; tags and fusion partners are left off. Residues count along the entry.
UniProt Q9ERK7: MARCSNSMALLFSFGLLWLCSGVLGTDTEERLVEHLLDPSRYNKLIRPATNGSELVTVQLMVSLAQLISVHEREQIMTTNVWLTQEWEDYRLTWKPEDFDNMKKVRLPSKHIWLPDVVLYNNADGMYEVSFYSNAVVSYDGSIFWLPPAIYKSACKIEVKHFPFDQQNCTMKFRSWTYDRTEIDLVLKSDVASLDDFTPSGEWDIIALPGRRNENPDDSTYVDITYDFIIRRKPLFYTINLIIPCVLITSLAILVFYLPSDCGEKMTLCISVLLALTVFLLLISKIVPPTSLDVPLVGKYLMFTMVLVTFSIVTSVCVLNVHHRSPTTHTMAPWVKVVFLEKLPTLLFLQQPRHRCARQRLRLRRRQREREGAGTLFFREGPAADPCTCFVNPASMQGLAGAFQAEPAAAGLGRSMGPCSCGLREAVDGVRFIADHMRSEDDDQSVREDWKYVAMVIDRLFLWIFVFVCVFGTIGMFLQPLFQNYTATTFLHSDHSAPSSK
UniProt Q9D6F9: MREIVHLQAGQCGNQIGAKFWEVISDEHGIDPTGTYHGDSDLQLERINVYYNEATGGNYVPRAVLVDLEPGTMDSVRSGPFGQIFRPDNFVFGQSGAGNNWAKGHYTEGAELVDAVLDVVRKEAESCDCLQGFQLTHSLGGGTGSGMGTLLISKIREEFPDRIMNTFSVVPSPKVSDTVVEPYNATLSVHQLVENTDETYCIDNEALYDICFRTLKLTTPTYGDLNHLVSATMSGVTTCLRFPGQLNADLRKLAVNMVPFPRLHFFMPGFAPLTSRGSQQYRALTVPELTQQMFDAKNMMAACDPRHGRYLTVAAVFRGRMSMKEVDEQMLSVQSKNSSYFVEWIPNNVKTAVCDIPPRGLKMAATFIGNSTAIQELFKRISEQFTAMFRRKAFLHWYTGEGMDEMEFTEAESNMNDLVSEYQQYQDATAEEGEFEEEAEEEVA
UniProt Q9CQH3, residues 47-189: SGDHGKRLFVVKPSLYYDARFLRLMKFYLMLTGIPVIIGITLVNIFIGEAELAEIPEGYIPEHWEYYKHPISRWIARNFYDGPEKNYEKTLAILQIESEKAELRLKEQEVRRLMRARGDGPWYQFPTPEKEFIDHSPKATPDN
UniProt Q2MKA5, residues 30-467: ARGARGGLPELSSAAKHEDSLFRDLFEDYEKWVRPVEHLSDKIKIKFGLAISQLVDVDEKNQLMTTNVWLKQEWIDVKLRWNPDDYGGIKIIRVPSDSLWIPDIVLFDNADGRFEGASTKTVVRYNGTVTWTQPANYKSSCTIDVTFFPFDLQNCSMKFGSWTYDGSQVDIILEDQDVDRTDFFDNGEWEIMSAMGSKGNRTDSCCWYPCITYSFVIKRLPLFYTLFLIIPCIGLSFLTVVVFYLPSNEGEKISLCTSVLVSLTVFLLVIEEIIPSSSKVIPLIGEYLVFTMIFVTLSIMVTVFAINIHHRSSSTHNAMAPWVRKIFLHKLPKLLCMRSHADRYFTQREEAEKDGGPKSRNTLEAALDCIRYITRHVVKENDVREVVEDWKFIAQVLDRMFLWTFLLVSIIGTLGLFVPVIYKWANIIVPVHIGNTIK
UniProt Q91VD9, residues 24-727: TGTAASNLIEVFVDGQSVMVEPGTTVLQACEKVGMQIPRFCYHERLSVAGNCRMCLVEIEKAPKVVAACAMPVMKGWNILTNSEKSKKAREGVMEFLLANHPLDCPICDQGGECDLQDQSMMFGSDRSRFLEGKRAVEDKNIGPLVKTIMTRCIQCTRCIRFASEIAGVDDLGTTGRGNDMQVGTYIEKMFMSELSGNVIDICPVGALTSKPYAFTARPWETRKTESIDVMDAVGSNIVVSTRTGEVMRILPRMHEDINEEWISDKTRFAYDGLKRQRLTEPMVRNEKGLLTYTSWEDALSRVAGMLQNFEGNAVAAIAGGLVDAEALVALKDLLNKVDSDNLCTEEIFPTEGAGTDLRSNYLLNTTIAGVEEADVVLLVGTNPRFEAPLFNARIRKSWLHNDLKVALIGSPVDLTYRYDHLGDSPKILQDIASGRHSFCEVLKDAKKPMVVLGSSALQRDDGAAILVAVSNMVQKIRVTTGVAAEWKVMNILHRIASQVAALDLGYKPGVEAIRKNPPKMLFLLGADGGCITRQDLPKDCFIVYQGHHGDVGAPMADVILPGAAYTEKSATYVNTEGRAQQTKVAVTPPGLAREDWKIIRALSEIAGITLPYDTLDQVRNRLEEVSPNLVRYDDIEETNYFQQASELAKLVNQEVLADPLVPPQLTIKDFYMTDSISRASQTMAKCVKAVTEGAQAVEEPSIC
UniProt Q9Z1P6: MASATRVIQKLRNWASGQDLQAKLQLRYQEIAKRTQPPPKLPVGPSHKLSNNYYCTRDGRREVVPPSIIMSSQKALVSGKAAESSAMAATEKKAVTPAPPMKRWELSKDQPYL
UniProt Q9CXZ1, residues 43-175: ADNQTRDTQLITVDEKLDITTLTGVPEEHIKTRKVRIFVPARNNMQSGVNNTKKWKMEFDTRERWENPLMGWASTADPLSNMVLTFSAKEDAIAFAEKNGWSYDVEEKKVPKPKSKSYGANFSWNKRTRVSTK
UniProt Q7TMF3: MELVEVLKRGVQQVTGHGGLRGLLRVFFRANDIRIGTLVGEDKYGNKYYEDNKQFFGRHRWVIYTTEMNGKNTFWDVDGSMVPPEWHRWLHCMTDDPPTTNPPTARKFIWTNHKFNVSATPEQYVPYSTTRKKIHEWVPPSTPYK
UniProt Q62277: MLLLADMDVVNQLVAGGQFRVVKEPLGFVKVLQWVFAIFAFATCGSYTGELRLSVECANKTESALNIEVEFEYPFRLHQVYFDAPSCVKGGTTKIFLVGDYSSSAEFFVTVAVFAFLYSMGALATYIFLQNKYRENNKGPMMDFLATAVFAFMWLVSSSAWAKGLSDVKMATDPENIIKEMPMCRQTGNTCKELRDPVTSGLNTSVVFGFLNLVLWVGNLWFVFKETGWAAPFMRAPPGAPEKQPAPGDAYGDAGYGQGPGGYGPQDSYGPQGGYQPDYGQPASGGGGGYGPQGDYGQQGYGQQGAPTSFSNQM
UniProt Q3UIU2: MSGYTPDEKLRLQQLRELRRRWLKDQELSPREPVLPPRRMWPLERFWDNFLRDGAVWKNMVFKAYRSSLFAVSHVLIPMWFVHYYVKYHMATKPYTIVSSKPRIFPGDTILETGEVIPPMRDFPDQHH
UniProt P43006: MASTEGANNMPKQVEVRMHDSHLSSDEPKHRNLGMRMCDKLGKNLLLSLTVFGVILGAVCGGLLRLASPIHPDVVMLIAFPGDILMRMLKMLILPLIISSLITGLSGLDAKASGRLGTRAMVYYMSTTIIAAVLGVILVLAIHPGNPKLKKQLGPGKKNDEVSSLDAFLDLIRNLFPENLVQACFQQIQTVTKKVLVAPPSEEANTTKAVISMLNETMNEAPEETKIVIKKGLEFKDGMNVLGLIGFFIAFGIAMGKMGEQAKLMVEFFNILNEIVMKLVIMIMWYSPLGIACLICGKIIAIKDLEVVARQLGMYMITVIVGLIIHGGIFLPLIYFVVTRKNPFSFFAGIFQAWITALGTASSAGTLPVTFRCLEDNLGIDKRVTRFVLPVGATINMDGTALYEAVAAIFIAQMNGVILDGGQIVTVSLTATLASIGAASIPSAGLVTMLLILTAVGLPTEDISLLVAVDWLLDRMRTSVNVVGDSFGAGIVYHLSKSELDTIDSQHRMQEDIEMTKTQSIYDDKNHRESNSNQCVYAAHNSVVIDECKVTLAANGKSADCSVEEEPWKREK
UniProt P52503, residues 21-116: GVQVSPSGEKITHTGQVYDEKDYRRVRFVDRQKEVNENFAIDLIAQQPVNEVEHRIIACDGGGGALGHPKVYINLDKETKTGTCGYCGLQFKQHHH
UniProt Q9DCX2: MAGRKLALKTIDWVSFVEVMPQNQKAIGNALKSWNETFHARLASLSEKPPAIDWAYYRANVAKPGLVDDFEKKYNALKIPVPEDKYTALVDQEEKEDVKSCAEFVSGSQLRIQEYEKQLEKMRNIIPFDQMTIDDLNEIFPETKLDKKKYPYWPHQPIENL
UniProt Q9CQ75: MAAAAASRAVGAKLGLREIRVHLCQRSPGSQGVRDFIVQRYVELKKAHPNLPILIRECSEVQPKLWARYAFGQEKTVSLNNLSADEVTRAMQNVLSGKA
UniProt Q9CQZ5: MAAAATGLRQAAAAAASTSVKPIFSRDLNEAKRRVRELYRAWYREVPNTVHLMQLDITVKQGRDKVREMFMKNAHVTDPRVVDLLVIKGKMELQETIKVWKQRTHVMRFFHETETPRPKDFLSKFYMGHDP
UniProt Q91WD5, residues 34-463: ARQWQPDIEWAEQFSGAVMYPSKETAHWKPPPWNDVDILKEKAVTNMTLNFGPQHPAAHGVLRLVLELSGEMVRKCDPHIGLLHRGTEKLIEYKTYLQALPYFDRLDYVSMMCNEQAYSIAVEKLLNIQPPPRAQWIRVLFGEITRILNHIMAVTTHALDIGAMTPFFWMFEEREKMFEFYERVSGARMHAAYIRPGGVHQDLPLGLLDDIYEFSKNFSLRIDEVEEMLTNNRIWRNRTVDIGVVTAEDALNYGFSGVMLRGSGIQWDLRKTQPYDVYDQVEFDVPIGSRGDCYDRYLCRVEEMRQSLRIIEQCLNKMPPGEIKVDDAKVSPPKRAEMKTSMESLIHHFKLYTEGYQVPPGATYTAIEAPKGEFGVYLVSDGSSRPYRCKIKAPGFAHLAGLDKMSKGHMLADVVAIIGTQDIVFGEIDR

Each substance was assayed against Neuronal acetylcholine receptor subunit β2 (mouse) (mouse (endogenous in cortex)) (UniProt Q9ERK7) (assay: affinity purification with mass spectrometry; β2*-nAChRs captured on mAb295-coupled M270 Dynabeads from a Triton X-100 extract of pooled mouse cortex membranes after DSP cross-linking; eight-plex iTRAQ LC-MS/MS; β2+/+, β2+/-, α4+/-β2+/- and β2-/- mice given saline or nicotine (4 mg/kg/h, 10 d); proteins found in both biological replicates).

Substance | binding
Myosin-10 (mouse) (from UniProt Q61879 1-1976) | binds
Tubulin α4A chain (mouse) (from UniProt P68368 1-448) | binds
Prohibitin-2 (mouse) (from UniProt O35129 1-299) | binds
Tubulin β4A chain (mouse) (from UniProt Q9D6F9 1-444) | binds
NADH dehydrogenase [ubiquinone] 1 β subcomplex subunit 5, mito (mouse) (from UniProt Q9CQH3 47-189) | binds
NADH dehydrogenase [ubiquinone] flavoprotein 1, mito (mouse) (from UniProt Q91YT0 21-464) | binds
Calcium/calmodulin-dependent protein kinase type II subunit β (mouse) (from UniProt P28652 1-542) | binds
Voltage-dependent anion-selective channel protein 1 (mouse) (from UniProt Q60932 1-296) | binds
Neuronal acetylcholine receptor subunit α5 (mouse) (from UniProt Q2MKA5 30-467) | binds
NADH-ubiquinone oxidoreductase 75 kDa subunit, mito (mouse) (from UniProt Q91VD9 24-727) | binds
NADH dehydrogenase [ubiquinone] 1 α subcomplex subunit 7 (mouse) (from UniProt Q9Z1P6 1-113) | binds
NADH dehydrogenase [ubiquinone] iron-sulfur protein 4, mito (mouse) (from UniProt Q9CXZ1 43-175) | binds
NADH dehydrogenase [ubiquinone] 1 α subcomplex subunit 12 (mouse) (from UniProt Q7TMF3 1-145) | binds
Spectrin β chain, nonerythrocytic 1 (mouse) (from UniProt Q62261 1-2363) | binds
Myelin basic protein (mouse) (from UniProt P04370-5) | binds
Synaptophysin (mouse) (from UniProt Q62277 1-314) | binds
NADH dehydrogenase [ubiquinone] 1 β subcomplex subunit 6 (mouse) (from UniProt Q3UIU2 1-128) | binds
Excitatory amino acid transporter 2 (mouse) (from UniProt P43006 1-572) | binds
Calcium/calmodulin-dependent protein kinase type II subunit α (mouse) (from UniProt P11798 1-478) | binds
Guanine nucleotide-binding protein G(I)/G(S)/G(T) subunit β1 (mouse) (from UniProt P62874 1-340) | binds
NADH dehydrogenase [ubiquinone] iron-sulfur protein 6, mito (mouse) (from UniProt P52503 21-116) | binds
ATP synthase subunit d, mito (mouse) (from UniProt Q9DCX2 1-161) | binds
NADH dehydrogenase [ubiquinone] 1 α subcomplex subunit 2 (mouse) (from UniProt Q9CQ75 1-99) | binds
ATP synthase subunit β, mito (mouse) (from UniProt P56480 47-529) | binds
V-type proton ATPase catalytic subunit A (mouse) (from UniProt P50516 1-617) | binds
NADH dehydrogenase [ubiquinone] 1 α subcomplex subunit 6 (mouse) (from UniProt Q9CQZ5 1-131) | binds
Tubulin β4B chain (mouse) (from UniProt P68372 1-445) | binds
NADH dehydrogenase [ubiquinone] iron-sulfur protein 2, mito (mouse) (from UniProt Q91WD5 34-463) | binds
